Results are given in words; binding and its absence hold for the method and conditions named. Binding seen in cells or lysates may run through a third protein. These calls come from enrichment with a bait or labelling near it, and not all partners need be listed. For some assays here: No binding means not detected with the bait.
T1: HHV1-UL13 (human herpesvirus 1 (HHV1)) (UniProt P04290)
T1 sequence: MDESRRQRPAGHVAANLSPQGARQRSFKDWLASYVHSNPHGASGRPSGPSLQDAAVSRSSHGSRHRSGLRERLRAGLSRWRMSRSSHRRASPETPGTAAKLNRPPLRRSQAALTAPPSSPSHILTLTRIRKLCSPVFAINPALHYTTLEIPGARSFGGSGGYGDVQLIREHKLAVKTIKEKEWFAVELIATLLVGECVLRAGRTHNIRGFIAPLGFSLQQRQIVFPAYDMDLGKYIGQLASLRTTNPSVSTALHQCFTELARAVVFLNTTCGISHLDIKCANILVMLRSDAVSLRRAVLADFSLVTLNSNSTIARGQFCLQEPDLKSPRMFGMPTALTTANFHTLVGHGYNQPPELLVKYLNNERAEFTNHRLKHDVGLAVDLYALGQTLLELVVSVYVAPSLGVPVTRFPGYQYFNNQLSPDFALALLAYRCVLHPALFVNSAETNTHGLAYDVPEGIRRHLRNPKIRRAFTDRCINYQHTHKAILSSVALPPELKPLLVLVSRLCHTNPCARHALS

Sequences of proteins named here, by UniProt entry; tags and fusion partners are left off.
UniProt P16788: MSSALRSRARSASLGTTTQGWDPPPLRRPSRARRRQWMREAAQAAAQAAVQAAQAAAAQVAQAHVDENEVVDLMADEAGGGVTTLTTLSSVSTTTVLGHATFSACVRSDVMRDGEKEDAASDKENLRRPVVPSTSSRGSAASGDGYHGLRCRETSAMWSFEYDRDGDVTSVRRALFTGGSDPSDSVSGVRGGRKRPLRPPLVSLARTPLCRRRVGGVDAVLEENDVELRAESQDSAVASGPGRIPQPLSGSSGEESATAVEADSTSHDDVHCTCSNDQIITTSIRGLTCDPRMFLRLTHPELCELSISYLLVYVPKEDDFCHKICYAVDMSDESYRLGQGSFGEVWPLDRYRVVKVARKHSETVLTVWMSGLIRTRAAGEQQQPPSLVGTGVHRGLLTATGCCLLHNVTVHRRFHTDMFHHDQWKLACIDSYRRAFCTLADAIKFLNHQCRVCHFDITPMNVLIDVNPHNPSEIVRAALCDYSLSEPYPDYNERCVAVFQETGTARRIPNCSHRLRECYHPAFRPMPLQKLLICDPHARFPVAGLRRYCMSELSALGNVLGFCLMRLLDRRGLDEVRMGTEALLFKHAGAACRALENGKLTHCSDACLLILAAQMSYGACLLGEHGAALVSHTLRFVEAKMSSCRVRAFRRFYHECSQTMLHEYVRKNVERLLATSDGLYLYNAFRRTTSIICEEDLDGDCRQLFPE
UniProt P12004: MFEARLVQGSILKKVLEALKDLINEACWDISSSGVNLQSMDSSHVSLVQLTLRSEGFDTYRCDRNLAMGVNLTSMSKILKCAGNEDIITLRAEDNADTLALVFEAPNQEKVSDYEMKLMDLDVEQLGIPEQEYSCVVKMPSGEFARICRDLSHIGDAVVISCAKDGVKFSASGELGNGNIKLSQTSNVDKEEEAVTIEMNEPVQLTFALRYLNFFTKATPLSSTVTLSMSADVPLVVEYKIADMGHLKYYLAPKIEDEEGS
UniProt P52737: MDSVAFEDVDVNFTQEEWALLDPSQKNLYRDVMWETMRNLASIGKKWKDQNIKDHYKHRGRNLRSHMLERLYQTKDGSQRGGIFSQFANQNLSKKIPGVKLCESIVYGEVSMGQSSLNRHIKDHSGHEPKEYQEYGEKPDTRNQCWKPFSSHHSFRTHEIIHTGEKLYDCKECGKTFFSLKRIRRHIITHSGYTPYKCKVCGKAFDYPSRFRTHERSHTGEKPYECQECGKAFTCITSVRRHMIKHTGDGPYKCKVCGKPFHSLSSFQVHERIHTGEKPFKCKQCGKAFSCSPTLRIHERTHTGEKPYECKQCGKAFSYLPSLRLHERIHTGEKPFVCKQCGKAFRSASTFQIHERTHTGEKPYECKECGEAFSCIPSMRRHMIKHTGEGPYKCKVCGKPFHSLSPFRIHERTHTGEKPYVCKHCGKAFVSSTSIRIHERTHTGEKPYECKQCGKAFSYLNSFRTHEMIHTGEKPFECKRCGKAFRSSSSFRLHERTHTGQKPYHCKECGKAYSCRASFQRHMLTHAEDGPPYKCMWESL
UniProt Q13263: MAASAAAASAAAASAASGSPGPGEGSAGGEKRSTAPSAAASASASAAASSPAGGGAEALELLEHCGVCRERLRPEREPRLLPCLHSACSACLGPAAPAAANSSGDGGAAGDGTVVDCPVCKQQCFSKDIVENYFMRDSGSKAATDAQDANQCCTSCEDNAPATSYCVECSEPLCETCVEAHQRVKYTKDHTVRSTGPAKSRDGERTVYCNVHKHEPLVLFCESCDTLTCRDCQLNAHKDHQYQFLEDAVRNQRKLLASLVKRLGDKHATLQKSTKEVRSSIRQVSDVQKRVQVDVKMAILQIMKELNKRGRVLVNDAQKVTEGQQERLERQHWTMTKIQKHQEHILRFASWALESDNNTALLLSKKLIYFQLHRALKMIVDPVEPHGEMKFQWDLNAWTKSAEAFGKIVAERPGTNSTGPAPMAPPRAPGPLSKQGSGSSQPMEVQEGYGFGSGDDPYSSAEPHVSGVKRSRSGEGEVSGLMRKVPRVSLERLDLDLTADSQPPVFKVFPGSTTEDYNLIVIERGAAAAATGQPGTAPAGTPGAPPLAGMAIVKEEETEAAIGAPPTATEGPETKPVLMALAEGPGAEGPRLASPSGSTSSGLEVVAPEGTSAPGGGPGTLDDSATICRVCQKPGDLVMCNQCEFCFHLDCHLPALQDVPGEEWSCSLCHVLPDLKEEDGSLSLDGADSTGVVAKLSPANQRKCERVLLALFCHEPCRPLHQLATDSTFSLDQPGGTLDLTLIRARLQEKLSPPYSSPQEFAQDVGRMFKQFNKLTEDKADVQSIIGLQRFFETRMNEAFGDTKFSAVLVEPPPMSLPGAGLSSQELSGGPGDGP
UniProt P54198: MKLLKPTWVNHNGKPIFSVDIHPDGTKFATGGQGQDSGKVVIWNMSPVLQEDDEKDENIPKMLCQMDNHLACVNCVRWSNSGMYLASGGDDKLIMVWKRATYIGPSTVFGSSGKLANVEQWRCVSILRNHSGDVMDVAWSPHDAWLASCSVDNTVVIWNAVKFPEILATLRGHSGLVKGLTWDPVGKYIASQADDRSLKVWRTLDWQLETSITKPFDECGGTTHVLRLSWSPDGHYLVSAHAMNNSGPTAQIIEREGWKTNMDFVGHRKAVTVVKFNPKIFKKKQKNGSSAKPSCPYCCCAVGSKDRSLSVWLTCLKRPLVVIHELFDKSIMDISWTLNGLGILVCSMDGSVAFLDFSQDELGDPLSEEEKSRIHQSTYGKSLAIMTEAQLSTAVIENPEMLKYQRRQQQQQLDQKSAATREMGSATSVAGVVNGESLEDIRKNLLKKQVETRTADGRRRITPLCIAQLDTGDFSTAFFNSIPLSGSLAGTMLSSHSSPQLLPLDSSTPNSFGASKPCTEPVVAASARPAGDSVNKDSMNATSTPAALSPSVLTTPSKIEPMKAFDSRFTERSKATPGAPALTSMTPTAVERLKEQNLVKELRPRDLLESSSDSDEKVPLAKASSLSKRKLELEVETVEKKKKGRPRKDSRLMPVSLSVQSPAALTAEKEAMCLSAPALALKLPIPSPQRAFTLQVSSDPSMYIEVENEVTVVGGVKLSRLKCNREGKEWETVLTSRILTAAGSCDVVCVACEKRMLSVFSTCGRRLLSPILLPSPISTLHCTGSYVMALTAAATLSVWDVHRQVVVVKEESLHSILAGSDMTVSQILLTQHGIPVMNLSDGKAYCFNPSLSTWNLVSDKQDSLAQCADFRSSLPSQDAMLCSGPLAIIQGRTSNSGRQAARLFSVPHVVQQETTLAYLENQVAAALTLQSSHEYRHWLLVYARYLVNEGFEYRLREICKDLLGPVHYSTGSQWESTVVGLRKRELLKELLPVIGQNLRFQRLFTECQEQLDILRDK
UniProt Q06587: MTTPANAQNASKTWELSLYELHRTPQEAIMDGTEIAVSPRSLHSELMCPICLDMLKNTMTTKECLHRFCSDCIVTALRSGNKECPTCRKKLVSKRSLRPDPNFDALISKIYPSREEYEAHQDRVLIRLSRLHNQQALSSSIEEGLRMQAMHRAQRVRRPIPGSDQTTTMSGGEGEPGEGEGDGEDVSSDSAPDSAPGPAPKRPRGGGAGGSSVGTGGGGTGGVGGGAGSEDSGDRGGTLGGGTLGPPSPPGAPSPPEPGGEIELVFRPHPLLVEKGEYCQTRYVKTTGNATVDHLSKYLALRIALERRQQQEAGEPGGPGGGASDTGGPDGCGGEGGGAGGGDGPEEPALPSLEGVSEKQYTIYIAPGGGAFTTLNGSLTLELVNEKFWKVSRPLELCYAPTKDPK
UniProt Q3KP31: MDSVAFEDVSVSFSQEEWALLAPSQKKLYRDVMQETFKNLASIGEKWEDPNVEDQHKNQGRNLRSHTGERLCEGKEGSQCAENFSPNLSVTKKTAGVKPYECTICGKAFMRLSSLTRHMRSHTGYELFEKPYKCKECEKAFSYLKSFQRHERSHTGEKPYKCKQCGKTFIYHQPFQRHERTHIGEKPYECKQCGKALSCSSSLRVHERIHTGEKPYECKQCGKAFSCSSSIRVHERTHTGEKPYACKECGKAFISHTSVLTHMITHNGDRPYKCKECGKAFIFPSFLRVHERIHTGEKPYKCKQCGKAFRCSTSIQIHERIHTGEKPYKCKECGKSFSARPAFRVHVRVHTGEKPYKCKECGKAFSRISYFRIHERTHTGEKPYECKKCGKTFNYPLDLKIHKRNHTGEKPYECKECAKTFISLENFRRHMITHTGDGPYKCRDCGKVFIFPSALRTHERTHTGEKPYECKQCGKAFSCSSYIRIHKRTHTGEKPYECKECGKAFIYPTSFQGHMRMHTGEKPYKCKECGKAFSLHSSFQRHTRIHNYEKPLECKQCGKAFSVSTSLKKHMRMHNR
UniProt Q9Y6J0: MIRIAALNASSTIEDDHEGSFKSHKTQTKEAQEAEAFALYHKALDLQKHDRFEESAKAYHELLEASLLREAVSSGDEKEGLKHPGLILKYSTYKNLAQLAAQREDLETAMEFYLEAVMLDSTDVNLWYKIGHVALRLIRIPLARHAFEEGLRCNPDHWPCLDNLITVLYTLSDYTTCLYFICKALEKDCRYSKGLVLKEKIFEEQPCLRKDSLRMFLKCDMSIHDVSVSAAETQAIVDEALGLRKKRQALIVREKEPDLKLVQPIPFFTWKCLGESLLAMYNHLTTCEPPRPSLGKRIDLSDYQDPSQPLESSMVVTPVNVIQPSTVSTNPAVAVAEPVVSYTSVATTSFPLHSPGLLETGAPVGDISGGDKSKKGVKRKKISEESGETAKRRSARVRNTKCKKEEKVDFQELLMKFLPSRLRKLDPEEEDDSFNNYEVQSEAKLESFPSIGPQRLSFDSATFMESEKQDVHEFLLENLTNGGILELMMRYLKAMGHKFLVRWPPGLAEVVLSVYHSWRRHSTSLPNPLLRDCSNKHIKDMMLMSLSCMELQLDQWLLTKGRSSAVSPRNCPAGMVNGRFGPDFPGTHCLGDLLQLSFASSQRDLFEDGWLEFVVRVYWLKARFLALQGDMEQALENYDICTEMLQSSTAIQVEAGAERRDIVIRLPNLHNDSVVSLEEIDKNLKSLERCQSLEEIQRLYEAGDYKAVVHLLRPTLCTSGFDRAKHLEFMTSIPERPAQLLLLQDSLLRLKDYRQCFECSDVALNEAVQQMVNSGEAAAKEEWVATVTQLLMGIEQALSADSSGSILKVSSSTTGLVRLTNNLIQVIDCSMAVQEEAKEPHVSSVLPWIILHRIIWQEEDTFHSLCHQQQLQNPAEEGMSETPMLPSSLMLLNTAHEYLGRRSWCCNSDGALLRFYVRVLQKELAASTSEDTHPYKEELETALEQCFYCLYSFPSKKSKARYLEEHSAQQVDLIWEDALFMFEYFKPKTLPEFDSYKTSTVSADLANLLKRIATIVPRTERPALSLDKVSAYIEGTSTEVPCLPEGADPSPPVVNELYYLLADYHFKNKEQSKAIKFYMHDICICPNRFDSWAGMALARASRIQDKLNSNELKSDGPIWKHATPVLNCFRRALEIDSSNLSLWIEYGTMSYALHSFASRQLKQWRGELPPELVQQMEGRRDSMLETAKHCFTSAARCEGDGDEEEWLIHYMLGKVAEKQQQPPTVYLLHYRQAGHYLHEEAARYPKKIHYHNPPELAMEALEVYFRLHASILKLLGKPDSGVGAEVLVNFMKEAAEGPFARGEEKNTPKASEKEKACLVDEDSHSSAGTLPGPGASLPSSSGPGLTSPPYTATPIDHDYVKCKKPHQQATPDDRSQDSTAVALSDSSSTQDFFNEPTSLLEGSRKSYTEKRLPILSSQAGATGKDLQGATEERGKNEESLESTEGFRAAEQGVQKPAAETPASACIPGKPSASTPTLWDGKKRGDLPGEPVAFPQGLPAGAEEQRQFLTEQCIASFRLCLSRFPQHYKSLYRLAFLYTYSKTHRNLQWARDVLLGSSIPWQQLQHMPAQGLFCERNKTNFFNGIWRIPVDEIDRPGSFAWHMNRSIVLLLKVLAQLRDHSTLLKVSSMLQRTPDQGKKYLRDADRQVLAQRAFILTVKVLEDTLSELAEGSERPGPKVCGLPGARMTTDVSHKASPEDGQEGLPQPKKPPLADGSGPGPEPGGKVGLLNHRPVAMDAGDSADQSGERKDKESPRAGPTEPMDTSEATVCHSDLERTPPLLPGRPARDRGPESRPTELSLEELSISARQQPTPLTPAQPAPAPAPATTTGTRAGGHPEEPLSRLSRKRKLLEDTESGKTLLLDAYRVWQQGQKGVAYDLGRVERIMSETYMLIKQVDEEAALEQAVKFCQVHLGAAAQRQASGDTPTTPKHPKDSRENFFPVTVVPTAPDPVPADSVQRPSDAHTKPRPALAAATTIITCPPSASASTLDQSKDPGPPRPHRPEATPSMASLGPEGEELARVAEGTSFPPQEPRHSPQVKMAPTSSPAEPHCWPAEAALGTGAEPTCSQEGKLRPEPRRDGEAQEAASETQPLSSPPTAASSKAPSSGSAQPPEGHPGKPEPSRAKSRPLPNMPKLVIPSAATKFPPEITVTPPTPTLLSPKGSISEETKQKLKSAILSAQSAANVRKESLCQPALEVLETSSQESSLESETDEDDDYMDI

B1: BEND3 (protein, UniProt Q5T5X7 1-828)
chain: MNSTEFTEDVEEVLKSITVKVETEAEDAALDCSVNSRTSEKHSVDSVLTALQDSSKRKQLVSDGLLDSVPGVKRRRLIPEALLAGMRNRENSSPCQGNGEQAGRGRSLGNVWPGEEEPCNDATTPSYKKPLYGISHKIMEKKNPPSGDLLNVYELFEKANASNSPSSLRLLNEPQKRDCGSTGAGTDNDPNIYFLIQKMFYMLNTLTSNMSQLHSKVDLLSLEVSRIKKQVSPTEMVAKFQPPPEYQLTAAELKQIVDQSLSGGDLACRLLVQLFPELFSDVDFSRGCSACGFAAKRKLESLHLQLIRNYVEVYYPSVKDTAVWQAECLPQLNDFFSRFWAQREMEDSQPSGQVASFFEAEQVDPGHFLDNKDQEEALSLDRSSTIASDHVVDTQDLTEFLDEASSPGEFAVFLLHRLFPELFDHRKLGEQYSCYGDGGKQELDPQRLQIIRNYTEIYFPDMQEEEAWLQQCAQRINDELEGLGLDAGSEGDPPRDDCYDSSSLPDDISVVKVEDSFEGERPGRRSKKIWLVPIDFDKLEIPQPDFEVPGADCLLSKEQLRSIYESSLSIGNFASRLLVHLFPELFTHENLRKQYNCSGSLGKKQLDPSRIKLIRHYVQLLYPRAKNDRVWTLEFVGKLDERCRRRDTEQRRSYQQQRKVHVPGPECRDLTSYAINPERFREEFEGPPLPPERSSKDFCKIPLDELVVPSPDFPVPSPYLLSDKEVREIVQQSLSVGNFAARLLVRLFPELFTAENLRLQYNHSGACNKKQLDPTRLRLIRHYVEAVYPVEKMEEVWHYECIPSIDERCRRPNRKKCDILKKAKKVEK
B2: PHC2 (protein, UniProt Q8IXK0 1-858)
chain: MENELPVPHTSSSACATSSTSGASSSSGCNNSSSGGSGRPTGPQISVYSGIPDRQTVQVIQQALHRQPSTAAQYLQQMYAAQQQHLMLQTAALQQQHLSSAQLQSLAAVQQASLVSNRQGSTSGSNVSAQAPAQSSSINLAASPAAAQLLNRAQSVNSAAASGIAQQAVLLGNTSSPALTASQAQMYLRAQMLIFTPTATVATVQPELGTGSPARPPTPAQVQNLTLRTQQTPAAAASGPTPTQPVLPSLALKPTPGGSQPLPTPAQSRNTAQASPAGAKPGIADSVMEPHKKGDGNSSVPGSMEGRAGLSRTVPAVAAHPLIAPAYAQLQPHQLLPQPSSKHLQPQFVIQQQPQPQQQQPPPQQSRPVLQAEPHPQLASVSPSVALQPSSEAHAMPLGPVTPALPLQCPTANLHKPGGSQQCHPPTPDTGPQNGHPEGVPHTPQRRFQHTSAVILQLQPASPPQQCVPDDWKEVAPGEKSVPETRSGPSPHQQAIVTAMPGGLPVPTSPNIQPSPAHETGQGIVHALTDLSSPGMTSGNGNSASSIAGTAPQNGENKPPQAIVKPQILTHVIEGFVIQEGAEPFPVGRSSLLVGNLKKKYAQGFLPEKLPQQDHTTTTDSEMEEPYLQESKEEGAPLKLKCELCGRVDFAYKFKRSKRFCSMACAKRYNVGCTKRVGLFHSDRSKLQKAGAATHNRRRASKASLPPLTKDTKKQPTGTVPLSVTAALQLTHSQEDSSRCSDNSSYEEPLSPISASSSTSRRRQGQRDLELPDMHMRDLVGMGHHFLPSEPTKWNVEDVYEFIRSLPGCQEIAEEFRAQEIDGQALLLLKEDHLMSAMNIKLGPALKIYARISMLKDS
B3: SSBP1 (protein, UniProt Q04837 17-148)
chain: ESETTTSLVLERSLNRVHLLGRVGQDPVLRQVEGKNPVTIFSLATNEMWRSGDSEVYQLGDVSQKTTWHRISVFRPGLRDVAYQYVKKGSRIYLEGKIDYGEYMDKNNVRRQATTIIADNIIFLSDQTKEKE
B4: CDC37 (protein, UniProt Q16543 1-378)
chain: MVDYSVWDHIEVSDDEDETHPNIDTASLFRWRHQARVERMEQFQKEKEELDRGCRECKRKVAECQRKLKELEVAEGGKAELERLQAEAQQLRKEERSWEQKLEEMRKKEKSMPWNVDTLSKDGFSKSMVNTKPEKTEEDSEEVREQKHKTFVEKYEKQIKHFGMLRRWDDSQKYLSDNVHLVCEETANYLVIWCIDLEVEEKCALMEQVAHQTIVMQFILELAKSLKVDPRACFRQFFTKIKTADRQYMEGFNDELEAFKERVRGRAKLRIEKAMKEYEEEERKKRLGPGGLDPVEVYESLPEELQKCFDVKDVQMLQDAISKMDPTDAKYHMQRCIDSGLWVPNSKASEAKEGEEAGPGDPLLEAVPKTGDEKDVSV
B5: CBX4 (protein, UniProt O00257 1-560)
chain: MELPAVGEHVFAVESIEKKRIRKGRVEYLVKWRGWSPKYNTWEPEENILDPRLLIAFQNRERQEQLMGYRKRGPKPKPLVVQVPTFARRSNVLTGLQDSSTDNRAKLDLGAQGKGQGHQYELNSKKHHQYQPHSKERAGKPPPPGKSGKYYYQLNSKKHHPYQPDPKMYDLQYQGGHKEAPSPTCPDLGAKSHPPDKWAQGAGAKGYLGAVKPLAGAAGAPGKGSEKGPPNGMMPAPKEAVTGNGIGGKMKIVKNKNKNGRIVIVMSKYMENGMQAVKIKSGEVAEGEARSPSHKKRAADERHPPADRTFKKAAGAEEKKVEAPPKRREEEVSGVSDPQPQDAGSRKLSPTKEAFGEQPLQLTTKPDLLAWDPARNTHPPSHHPHPHPHHHHHHHHHHHHAVGLNLSHVRKRCLSETHGEREPCKKRLTARSISTPTCLGGSPAAERPADLPPAAALPQPEVILLDSDLDEPIDLRCVKTRSEAGEPPSSLQVKPETPASAAVAVAAAAAPTTTAEKPPAEAQDEPAESLSEFKPFFGNIIITDVTANCLTVTFKEYVTV
B6: E4F1 (protein, UniProt Q66K89 1-784)
chain: MEGAMAVRVTAAHTAEAQAEAGREAGEGAVAAVAAALAPSGFLGLPAPFSEEDEDDVHRCGRCQAEFTALEDFVQHKIQKACQRAPPEALPATPATTALLGQEVVPAAPGPEEPITVAHIVVEAASLAADISHASDLVGGGHIKEVIVAAEAELGDGEMAEAPGSPRQQGLGLAGEGEQAQVKLLVNKDGRYVCALCHKTFKTGSILKAHMVTHSSRKDHECKLCGASFRTKGSLIRHHRRHTDERPYKCSKCGKSFRESGALTRHLKSLTPCTEKIRFSVSKDVVVSKEDARAGSGAGAAGLGTATSSVTGEPIETSPVIHLVTDAKGTVIHEVHVQMQELSLGMKALAPEPPVSQELPCSSEGSRENLLHQAMQNSGIVLERAAGEEGALEPAPAAGSSPQPLAVAAPQLPVLEVQPLETQVASEASAVPRTHPCPQCSETFPTAATLEAHKRGHTGPRPFACAQCGKAFPKAYLLKKHQEVHVRERRFRCGDCGKLYKTIAHVRGHRRVHSDERPYPCPKCGKRYKTKNAQQVHFRTHLEEKPHVCQFCSRGFREKGSLVRHVRHHTGEKPFKCYKCGRGFAEHGTLNRHLRTKGGCLLEVEELLVSEDSPAAATTVLTEDPHTVLVEFSSVVADTQEYIIEATADDAETSEATEIIEGTQTEVDSHIMKVVQQIVHQASAGHQIIVQNVTMDEETALGPEAAAADTITIATPESLTEQVAMTLASAISEGTVLAARAGTSGTEQATVTMVSSEDIEILEHAGELVIASPEGQLEVQTVIV

Legend:
[1] = molecular target: HHV5-UL97 (human cytomegalovirus (human herpesvirus 5, HHV5)) (UniProt P16788); assay: affinity purification with mass spectrometry
[2] = molecular target: T1, HHV1-UL13 (human herpesvirus 1 (HHV1)); assay: affinity purification with mass spectrometry
[3] = molecular target: HHV5-UL97 (human cytomegalovirus (human herpesvirus 5, HHV5)) (UniProt P16788); assay: affinity purification with mass spectrometry; additional SILAC AP–MS experiment directly comparing proteins enriched to BGLF4 and pUL97
[4] = molecular target: HHV6-U69 (human herpesvirus 6 (HHV6)); assay: affinity purification with mass spectrometry
[5] = molecular target: HHV7-U69 (human herpesvirus 7 (HHV7)); assay: affinity purification with mass spectrometry
[6] = molecular target: HHV8-ORF36 (human herpesvirus 8 (HHV8)); assay: affinity purification with mass spectrometry
[7] = molecular target: HHV3-ORF47 (human herpesvirus 3 (HHV3)); assay: affinity purification with mass spectrometry

| Molecule | binding [1] | binding [2] | binding [3] | binding [4] | binding [5] | binding [6] | binding [7] |
| --- | --- | --- | --- | --- | --- | --- | --- |
| PCNA (from UniProt P12004 1-261) | no binding | no binding |  |  |  |  |  |
| SMCHD1 (from UniProt A6NHR9 1-2005) | no binding | no binding |  |  |  |  |  |
| Cyclin A (from UniProt P20248 1-432) | binds |  |  |  |  |  |  |
| ZNF136 (from UniProt P52737 1-540) | binds | no binding | binds |  |  |  |  |
| HSP90 (human (endogenous in HEK-293T)) |  | binds |  |  |  |  |  |
| TRIM28 (from UniProt Q13263 1-835) | binds | no binding | binds |  |  |  |  |
| E4F1 (from UniProt Q66K89 1-784) | no binding | no binding |  |  |  |  |  |
| HIRA (from UniProt P54198 1-1017) | no binding | no binding |  |  |  |  |  |
| HERC2 (from UniProt O95714 1-4834) | no binding | no binding |  |  |  |  |  |
| RING1 (from UniProt Q06587 1-406) | binds | no binding | binds |  |  |  |  |
| ZNF791 (from UniProt Q3KP31 1-576) | binds | no binding | binds |  |  |  |  |
| CABIN1 (from UniProt Q9Y6J0 1-2220) | no binding | no binding |  |  |  |  |  |
| B1 | no binding | no binding |  | no binding | no binding | no binding | no binding |
| B2 | binds | no binding | binds | no binding | no binding | no binding | no binding |
| B3 | no binding | no binding |  | no binding | no binding | no binding | no binding |
| B4 | binds | binds |  | binds | binds | binds | binds |
| B5 | binds | no binding | binds | no binding | no binding | no binding | no binding |
| B6 |  |  |  | no binding | no binding | no binding | no binding |
